{
  "source": "patent US6380229B1",
  "about": "“2-(N-cyanoimino)thiazolidin-4-one derivatives” (Fujimoto Co., Ltd., priority 2001, dated 2002)",
  "origin": "cited, not measured here",
  "tested_on": "hyperlipidemic rabbits",
  "conditions": "cited from earlier work",
  "note": "At least one compound was matched to its structure with a doubt left.",
  "data": [
    {"smiles": "CCc1ccc(CCOc2ccc(CC3SC(=O)NC3=O)cc2)nc1", "note": "(centres unmarked) [pioglitazone]", "values": [
      {"measurement": "total cholesterol level", "result": "did not change"},
      {"measurement": "triglyceride level", "result": "did not change"}
    ]}
  ]
}
